Results are given in words; binding and its absence hold for the method and conditions named. Some entries that bind do so weakly or less than the wild type.
Molecular target: human PDGFRb.mFc (human)
Experiment: SPR (Biacore 3000), 30 nM ligand over hPDGFRb.mFc captured by anti-mouse Fc, no antibody

Row | binding | Substance
1 | binds | PDGF-AB (from UniProt P04085 87-211; P01127 82-190) (ligand)
2 | binds | PDGF-DD (from UniProt Q9GZP0 250-370) (ligand)

Reference: patent publication US20170210813A1
